By UniProt entry, the sequences of proteins in these tests, tags left out. Where a name states a change or a piece, a line headed by the entry shows the natural chain unless it says otherwise.
UniProt O95182, whole entry, looked up: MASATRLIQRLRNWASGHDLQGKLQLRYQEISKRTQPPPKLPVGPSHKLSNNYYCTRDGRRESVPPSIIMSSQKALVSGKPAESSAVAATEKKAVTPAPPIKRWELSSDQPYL
UniProt Q9NX24: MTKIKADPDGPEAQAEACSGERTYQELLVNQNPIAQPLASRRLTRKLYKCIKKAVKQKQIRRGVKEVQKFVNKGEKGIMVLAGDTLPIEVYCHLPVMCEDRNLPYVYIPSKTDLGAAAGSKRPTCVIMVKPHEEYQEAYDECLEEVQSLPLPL
UniProt Q12968: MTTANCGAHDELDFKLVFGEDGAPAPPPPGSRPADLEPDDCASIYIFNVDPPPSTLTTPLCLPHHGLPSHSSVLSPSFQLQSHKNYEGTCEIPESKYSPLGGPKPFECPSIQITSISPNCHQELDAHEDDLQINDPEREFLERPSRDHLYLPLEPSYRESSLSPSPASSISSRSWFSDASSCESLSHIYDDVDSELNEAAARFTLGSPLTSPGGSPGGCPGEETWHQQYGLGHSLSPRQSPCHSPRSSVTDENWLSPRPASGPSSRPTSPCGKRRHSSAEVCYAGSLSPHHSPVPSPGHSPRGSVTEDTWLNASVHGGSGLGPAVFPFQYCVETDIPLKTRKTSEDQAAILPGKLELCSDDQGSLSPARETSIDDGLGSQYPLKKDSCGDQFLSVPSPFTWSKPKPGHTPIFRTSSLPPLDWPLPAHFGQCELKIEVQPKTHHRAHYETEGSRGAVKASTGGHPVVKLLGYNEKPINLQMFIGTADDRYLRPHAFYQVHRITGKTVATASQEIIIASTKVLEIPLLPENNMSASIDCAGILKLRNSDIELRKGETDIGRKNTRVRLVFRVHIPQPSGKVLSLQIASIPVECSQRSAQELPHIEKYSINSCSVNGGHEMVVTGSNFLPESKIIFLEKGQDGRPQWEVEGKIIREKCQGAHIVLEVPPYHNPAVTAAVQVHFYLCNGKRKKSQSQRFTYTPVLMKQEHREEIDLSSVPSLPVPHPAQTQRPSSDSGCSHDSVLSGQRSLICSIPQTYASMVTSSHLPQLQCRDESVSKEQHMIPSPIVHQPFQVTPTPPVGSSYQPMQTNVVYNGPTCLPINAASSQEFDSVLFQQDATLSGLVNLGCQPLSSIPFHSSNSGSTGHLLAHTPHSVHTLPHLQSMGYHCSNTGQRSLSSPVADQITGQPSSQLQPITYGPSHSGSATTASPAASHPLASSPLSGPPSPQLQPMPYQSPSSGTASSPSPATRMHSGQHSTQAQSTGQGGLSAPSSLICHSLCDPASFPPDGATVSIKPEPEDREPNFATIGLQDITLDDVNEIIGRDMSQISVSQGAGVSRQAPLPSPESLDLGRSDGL
UniProt P56556, whole entry, looked up: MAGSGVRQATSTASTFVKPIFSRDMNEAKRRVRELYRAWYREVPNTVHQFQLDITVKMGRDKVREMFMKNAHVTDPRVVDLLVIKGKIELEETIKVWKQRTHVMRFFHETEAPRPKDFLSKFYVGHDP
UniProt Q8WX92, whole entry, looked up: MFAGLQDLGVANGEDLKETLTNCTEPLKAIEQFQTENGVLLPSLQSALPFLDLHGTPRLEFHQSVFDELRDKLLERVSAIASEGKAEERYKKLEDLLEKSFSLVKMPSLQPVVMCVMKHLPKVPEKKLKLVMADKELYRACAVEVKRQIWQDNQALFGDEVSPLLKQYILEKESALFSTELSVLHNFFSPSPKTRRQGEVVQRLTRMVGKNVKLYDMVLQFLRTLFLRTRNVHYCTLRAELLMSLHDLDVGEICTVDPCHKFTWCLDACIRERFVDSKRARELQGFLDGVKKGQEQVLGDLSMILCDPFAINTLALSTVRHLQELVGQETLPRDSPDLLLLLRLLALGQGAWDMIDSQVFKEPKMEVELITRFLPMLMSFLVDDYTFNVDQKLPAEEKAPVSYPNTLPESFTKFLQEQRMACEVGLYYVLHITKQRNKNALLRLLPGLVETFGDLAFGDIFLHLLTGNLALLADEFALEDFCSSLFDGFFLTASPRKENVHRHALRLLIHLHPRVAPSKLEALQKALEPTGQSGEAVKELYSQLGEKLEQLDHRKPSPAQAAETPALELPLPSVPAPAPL
UniProt Q12986: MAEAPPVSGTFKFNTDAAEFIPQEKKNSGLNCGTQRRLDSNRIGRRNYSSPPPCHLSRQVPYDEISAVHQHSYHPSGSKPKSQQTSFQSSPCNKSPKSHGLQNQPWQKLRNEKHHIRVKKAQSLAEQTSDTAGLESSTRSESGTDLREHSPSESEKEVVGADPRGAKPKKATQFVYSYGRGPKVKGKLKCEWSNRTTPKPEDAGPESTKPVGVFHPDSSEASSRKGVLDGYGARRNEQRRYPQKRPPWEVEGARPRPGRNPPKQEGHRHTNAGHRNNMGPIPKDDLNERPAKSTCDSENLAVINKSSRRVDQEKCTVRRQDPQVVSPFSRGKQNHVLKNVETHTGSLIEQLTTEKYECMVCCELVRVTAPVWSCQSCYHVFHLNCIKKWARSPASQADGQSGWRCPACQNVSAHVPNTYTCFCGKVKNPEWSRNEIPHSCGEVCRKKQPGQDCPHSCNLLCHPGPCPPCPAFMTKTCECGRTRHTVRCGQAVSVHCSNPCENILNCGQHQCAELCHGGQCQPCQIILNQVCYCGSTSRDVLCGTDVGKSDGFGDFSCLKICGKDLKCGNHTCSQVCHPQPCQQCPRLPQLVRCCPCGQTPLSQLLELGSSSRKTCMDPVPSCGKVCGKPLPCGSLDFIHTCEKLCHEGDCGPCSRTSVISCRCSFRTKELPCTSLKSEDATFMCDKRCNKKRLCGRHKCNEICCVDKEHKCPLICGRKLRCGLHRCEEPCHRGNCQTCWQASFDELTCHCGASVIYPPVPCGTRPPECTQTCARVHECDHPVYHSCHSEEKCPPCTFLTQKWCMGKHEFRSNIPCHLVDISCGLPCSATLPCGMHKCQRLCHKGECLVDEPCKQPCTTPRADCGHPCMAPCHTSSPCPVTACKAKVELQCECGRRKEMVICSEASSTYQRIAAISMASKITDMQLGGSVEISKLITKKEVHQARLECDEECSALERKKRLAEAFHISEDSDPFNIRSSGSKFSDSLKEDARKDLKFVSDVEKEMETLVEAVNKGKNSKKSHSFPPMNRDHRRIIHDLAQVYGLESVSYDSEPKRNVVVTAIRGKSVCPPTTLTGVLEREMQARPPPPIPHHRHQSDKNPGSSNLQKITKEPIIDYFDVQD
UniProt P21359: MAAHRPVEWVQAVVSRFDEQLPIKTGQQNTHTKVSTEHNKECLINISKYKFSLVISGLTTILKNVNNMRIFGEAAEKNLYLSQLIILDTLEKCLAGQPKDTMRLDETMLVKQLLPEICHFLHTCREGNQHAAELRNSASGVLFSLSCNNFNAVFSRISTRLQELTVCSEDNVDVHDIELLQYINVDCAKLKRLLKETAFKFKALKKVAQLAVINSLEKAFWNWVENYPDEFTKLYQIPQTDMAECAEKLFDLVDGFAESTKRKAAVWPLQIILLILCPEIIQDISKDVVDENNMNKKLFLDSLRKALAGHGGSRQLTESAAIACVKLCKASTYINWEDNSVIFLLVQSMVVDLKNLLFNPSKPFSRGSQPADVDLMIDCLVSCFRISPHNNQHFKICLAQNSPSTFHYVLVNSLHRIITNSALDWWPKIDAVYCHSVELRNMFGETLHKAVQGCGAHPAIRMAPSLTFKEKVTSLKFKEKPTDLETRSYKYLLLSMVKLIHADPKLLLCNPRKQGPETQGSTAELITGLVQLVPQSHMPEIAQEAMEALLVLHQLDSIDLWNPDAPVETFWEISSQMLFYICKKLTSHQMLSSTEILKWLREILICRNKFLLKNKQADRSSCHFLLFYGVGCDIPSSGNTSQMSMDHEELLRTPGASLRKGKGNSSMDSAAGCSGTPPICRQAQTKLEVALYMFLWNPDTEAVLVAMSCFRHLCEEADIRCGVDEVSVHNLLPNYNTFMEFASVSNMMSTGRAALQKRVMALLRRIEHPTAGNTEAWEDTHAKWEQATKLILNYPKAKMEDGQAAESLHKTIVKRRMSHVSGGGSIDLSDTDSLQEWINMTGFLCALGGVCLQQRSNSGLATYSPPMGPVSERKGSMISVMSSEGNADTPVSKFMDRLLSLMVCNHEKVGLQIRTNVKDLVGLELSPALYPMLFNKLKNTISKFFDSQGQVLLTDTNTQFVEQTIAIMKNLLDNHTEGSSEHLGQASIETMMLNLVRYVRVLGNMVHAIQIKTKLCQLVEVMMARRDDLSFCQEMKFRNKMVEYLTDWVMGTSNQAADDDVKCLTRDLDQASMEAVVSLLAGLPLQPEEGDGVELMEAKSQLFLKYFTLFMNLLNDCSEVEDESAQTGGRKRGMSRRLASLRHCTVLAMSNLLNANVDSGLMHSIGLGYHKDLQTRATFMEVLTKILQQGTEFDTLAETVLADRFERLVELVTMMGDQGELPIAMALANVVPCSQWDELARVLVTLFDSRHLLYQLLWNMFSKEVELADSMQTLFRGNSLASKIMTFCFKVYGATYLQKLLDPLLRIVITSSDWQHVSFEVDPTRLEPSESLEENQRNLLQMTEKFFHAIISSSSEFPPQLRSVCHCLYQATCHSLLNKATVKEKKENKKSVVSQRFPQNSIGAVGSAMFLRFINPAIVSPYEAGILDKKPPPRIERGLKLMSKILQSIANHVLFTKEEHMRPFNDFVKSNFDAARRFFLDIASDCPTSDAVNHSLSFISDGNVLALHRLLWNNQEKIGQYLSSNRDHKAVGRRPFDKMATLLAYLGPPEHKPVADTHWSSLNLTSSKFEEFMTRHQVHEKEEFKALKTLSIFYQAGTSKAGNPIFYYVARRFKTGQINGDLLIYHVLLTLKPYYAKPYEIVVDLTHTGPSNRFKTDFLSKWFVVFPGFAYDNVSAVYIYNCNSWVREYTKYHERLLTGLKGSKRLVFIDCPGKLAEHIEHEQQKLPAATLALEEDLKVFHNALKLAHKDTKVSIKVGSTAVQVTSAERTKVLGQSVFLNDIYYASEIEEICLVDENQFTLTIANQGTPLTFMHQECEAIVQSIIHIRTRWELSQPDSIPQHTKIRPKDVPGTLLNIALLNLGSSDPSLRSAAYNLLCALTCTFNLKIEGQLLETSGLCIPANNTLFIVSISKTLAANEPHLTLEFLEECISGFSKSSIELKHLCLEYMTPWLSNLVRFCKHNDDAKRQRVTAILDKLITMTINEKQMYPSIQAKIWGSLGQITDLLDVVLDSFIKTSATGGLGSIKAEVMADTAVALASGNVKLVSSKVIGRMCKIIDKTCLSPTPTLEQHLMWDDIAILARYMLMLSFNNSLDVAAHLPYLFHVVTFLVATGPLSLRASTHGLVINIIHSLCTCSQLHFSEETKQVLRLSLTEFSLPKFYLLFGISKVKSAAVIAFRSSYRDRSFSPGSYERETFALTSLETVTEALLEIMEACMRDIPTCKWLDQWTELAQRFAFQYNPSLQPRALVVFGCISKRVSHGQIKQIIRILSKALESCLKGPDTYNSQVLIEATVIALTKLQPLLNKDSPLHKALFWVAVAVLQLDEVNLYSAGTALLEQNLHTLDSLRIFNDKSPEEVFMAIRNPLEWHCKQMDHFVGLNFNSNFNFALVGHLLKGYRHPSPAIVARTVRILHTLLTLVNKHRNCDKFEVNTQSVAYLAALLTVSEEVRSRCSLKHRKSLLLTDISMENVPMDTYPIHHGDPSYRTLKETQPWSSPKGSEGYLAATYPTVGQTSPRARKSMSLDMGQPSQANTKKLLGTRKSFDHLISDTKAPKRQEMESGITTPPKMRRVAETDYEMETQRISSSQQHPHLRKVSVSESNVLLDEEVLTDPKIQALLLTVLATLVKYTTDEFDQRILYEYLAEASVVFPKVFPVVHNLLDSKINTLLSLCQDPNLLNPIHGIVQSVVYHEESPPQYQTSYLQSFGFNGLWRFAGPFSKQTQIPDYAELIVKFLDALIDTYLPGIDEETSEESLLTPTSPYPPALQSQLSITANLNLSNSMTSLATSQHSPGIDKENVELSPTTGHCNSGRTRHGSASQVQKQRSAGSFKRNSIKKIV
UniProt O75323: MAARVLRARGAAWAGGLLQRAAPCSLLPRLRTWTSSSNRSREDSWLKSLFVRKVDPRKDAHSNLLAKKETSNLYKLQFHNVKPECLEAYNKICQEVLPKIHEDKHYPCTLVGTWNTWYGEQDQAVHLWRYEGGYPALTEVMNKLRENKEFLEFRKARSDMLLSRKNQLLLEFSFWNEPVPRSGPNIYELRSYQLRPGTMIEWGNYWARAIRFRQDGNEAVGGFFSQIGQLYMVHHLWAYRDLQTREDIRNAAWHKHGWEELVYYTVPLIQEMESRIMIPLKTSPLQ
UniProt Q9NYR9: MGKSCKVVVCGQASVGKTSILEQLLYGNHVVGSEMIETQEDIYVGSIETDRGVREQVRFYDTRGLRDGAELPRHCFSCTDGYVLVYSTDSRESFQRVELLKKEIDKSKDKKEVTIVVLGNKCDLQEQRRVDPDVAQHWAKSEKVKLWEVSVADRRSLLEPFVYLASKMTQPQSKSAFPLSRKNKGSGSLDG
UniProt Q15843, whole entry, looked up: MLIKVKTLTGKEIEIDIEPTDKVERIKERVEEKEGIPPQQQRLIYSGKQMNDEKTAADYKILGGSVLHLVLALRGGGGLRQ

Some of the results follow.
These targets were tested with CS(=O)(=O)CCNCc1ccc(-c2ccc3ncnc(Nc4ccc(OCc5cccc(F)c5)c(Cl)c4)c3c2)o1 [lapatinib] (assay: log2 fold change, soluble protein after heating vs DMSO (PISA); higher = thermal stabilisation; K562 lysate, 10 uM; active = over 0.2 and 3.5 SD of the protein, either way, in both replicates (recomputed)).
Method in brief: (§1)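 Log-two fold change in thermal stability relative to solvent controls is reported from duplicates. For each sample, crude K562 extract from dounce-homogenised pellets in PBS pH 7.4 with 1 mM MgCl2, at 1 mg/mL protein, was treated with 10 μM compound for 30 min. Aliquots heated for 3 min across 48°C-58°C were pooled, brought to 0.5% NP-40 at 4°C and cleared at 21,000xg for 90 min. The supernatant was quantified by TMTpro 16plex LC-MS/MS with channel sums equalised.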
NDUFA7 (UniProt O95182) was tested, and the log2 fold change was inactive: 0.017.
With NFATC4 isoform 2 (UniProt Q14934) the log2 fold change was inactive: 0.039.
In the case of NHP2 (UniProt Q9NX24), the log2 fold change is reported as inactive: 0.04.
For NFATC3 (UniProt Q12968), the log2 fold change was inactive: 0.049.
For NFAT5 isoform 5 (UniProt O94916), the log2 fold change was inactive: 0.033.
In the case of NGRN (UniProt Q9NPE2), the log2 fold change is reported as inactive: -0.024.
With NDUFA6 (UniProt P56556) the log2 fold change was inactive: -0.067.
NF2 (UniProt P35240) was tested, and the log2 fold change was inactive: -0.019.
For NELFB isoform 2 (UniProt Q8WX92), the log2 fold change was inactive: 0.015.
With NDUFS7 (UniProt O75251) the log2 fold change was inactive: -0.021.
For NFX1 (UniProt Q12986), the log2 fold change was inactive: -0.027.
NDUFB9 (UniProt Q9Y6M9) was tested, and the log2 fold change was inactive: -0.013.
With NDUFB8 (UniProt O95169) the log2 fold change was inactive: 0.049.
For NF1 (UniProt P21359), the log2 fold change was inactive: -0.034.
With NIPSNAP2 (UniProt O75323) the log2 fold change was inactive: 0.015.
For NEK7 (UniProt Q8TDX7), the log2 fold change was inactive: -0.035.
For NKIRAS2 (UniProt Q9NYR9), the log2 fold change was inactive: 0.042.

The targets below were run with CS(=O)(=O)N1CCN(Cc2cc3nc(-c4cccc5[nH]ncc45)nc(N4CCOCC4)c3s2)CC1 [pictilisib] in the same assay as above.
Method in brief: as §1
In the case of NIPSNAP3A (UniProt Q9UFN0), the log2 fold change is reported as inactive: -0.031.
In the case of NEDD8 (UniProt Q15843), the log2 fold change is reported as inactive: 0.028.
NDUFAF4 (UniProt Q9P032) was tested, and the log2 fold change was inactive: -0.026.
NDUFV1 (UniProt P49821) was tested, and the log2 fold change was inactive: -0.016.
In the case of NEU1 (UniProt Q99519), the log2 fold change is reported as inactive: -0.033.
In the case of NDRG2 (UniProt Q9UN36), the log2 fold change is reported as inactive: -0.001.
NDUFAB1 (UniProt O14561) was tested, and the log2 fold change was inactive: -0.064.
NIFK (UniProt Q9BYG3) was tested, and the log2 fold change was inactive: -0.019.
For NFU1 (UniProt Q9UMS0), the log2 fold change was inactive: 0.
For NDC80 (UniProt O14777), the log2 fold change was inactive: 0.006.
For NEDD1 isoform 3 (UniProt Q8NHV4), the log2 fold change was inactive: 0.002.
NIP7 (UniProt Q9Y221) was tested, and the log2 fold change was inactive: 0.016.
NIT1 (UniProt Q86X76) was tested, and the log2 fold change was inactive: -0.034.
For NDUFA10 (UniProt O95299), the log2 fold change was inactive: -0.001.
For NFIC (UniProt P08651), the log2 fold change was inactive: 0.109.
For NLRP2 (UniProt Q9NX02), the log2 fold change was inactive: -0.025.
With NEDD4 isoform 4 (UniProt P46934) the log2 fold change was inactive: -0.037.
NDRG3 (UniProt Q9UGV2) was tested, and the log2 fold change was inactive: -0.005.
For NFKBIE (UniProt O00221), the log2 fold change was inactive: 0.002.
In the case of NEPRO (UniProt Q6NW34), the log2 fold change is reported as inactive: -0.089.
For NDUFA11 (UniProt Q86Y39), the log2 fold change was inactive: -0.043.
In the case of NGLY1 (UniProt Q96IV0), the log2 fold change is reported as inactive: -0.002.
For NFS1 (UniProt Q9Y697), the log2 fold change was inactive: -0.015.
In the case of NDUFA7 (UniProt O95182), the log2 fold change is reported as inactive: 0.029.
In the case of NFATC4 isoform 2 (UniProt Q14934), the log2 fold change is reported as inactive: 0.003.
In the case of NHP2 (UniProt Q9NX24), the log2 fold change is reported as inactive: 0.035.
In the case of NFATC3 (UniProt Q12968), the log2 fold change is reported as inactive: 0.014.
NFAT5 isoform 5 (UniProt O94916) was tested, and the log2 fold change was inactive: -0.002.
NGRN (UniProt Q9NPE2) was tested, and the log2 fold change was inactive: -0.029.
NDUFA6 (UniProt P56556) was tested, and the log2 fold change was inactive: 0.002.
NF2 (UniProt P35240) was tested, and the log2 fold change was inactive: -0.021.
For NELFB isoform 2 (UniProt Q8WX92), the log2 fold change was inactive: 0.028.
For NDUFS7 (UniProt O75251), the log2 fold change was inactive: -0.031.
NFX1 (UniProt Q12986) was tested, and the log2 fold change was inactive: 0.006.
For NDUFB9 (UniProt Q9Y6M9), the log2 fold change was inactive: -0.057.
With NDUFB8 (UniProt O95169) the log2 fold change was inactive: 0.039.
NF1 (UniProt P21359) was tested, and the log2 fold change was inactive: -0.022.
In the case of NIPSNAP2 (UniProt O75323), the log2 fold change is reported as inactive: -0.06.
NEK7 (UniProt Q8TDX7) was tested, and the log2 fold change was inactive: -0.018.
NKIRAS2 (UniProt Q9NYR9) was tested, and the log2 fold change was inactive: 0.027.

The targets below were run with C[C@@H](Oc1cc(-c2cnn(C3CCNCC3)c2)cnc1N)c1c(Cl)ccc(F)c1Cl [crizotinib] in the same assay as above.
Method in brief: as §1
With NIPSNAP3A (UniProt Q9UFN0) the log2 fold change was inactive: 0.021.
NEDD8 (UniProt Q15843) was tested, and the log2 fold change was inactive: 0.041.
NDUFAF4 (UniProt Q9P032) was tested, and the log2 fold change was inactive: -0.054.
In the case of NDUFV1 (UniProt P49821), the log2 fold change is reported as inactive: -0.012.
For NEU1 (UniProt Q99519), the log2 fold change was inactive: 0.042.
For NDRG2 (UniProt Q9UN36), the log2 fold change was inactive: 0.021.
NDUFAB1 (UniProt O14561) was tested, and the log2 fold change was inactive: 0.032.
With NIFK (UniProt Q9BYG3) the log2 fold change was inactive: -0.033.
In the case of NFU1 (UniProt Q9UMS0), the log2 fold change is reported as inactive: 0.011.
NDC80 (UniProt O14777) was tested, and the log2 fold change was inactive: -0.028.
In the case of NEDD1 isoform 3 (UniProt Q8NHV4), the log2 fold change is reported as inactive: 0.082.
With NIP7 (UniProt Q9Y221) the log2 fold change was inactive: -0.008.
For NIT1 (UniProt Q86X76), the log2 fold change was inactive: -0.024.
For NDUFA10 (UniProt O95299), the log2 fold change was inactive: -0.044.
For NFIC (UniProt P08651), the log2 fold change was inactive: 0.007.
With NLRP2 (UniProt Q9NX02) the log2 fold change was inactive: -0.029.
NEDD4 isoform 4 (UniProt P46934) was tested, and the log2 fold change was inactive: -0.032.
NDRG3 (UniProt Q9UGV2) was tested, and the log2 fold change was inactive: -0.011.
For NFKBIE (UniProt O00221), the log2 fold change was inactive: -0.027.
In the case of NEPRO (UniProt Q6NW34), the log2 fold change is reported as inactive: -0.089.
In the case of NDUFA11 (UniProt Q86Y39), the log2 fold change is reported as inactive: -0.009.
In the case of NGLY1 (UniProt Q96IV0), the log2 fold change is reported as inactive: -0.058.
With NFS1 (UniProt Q9Y697) the log2 fold change was inactive: 0.004.
In the case of NDUFA7 (UniProt O95182), the log2 fold change is reported as inactive: -0.02.
NFATC4 isoform 2 (UniProt Q14934) was tested, and the log2 fold change was inactive: -0.132.
For NHP2 (UniProt Q9NX24), the log2 fold change was inactive: 0.017.
For NFATC3 (UniProt Q12968), the log2 fold change was inactive: -0.011.
With NFAT5 isoform 5 (UniProt O94916) the log2 fold change was inactive: 0.053.
For NGRN (UniProt Q9NPE2), the log2 fold change was inactive: 0.019.
NDUFA6 (UniProt P56556) was tested, and the log2 fold change was inactive: -0.045.
With NF2 (UniProt P35240) the log2 fold change was inactive: -0.111.
For NELFB isoform 2 (UniProt Q8WX92), the log2 fold change was inactive: -0.015.
NDUFS7 (UniProt O75251) was tested, and the log2 fold change was inactive: -0.038.
In the case of NFX1 (UniProt Q12986), the log2 fold change is reported as inactive: -0.001.
NDUFB9 (UniProt Q9Y6M9) was tested, and the log2 fold change was inactive: 0.044.
For NDUFB8 (UniProt O95169), the log2 fold change was inactive: 0.015.
NF1 (UniProt P21359) was tested, and the log2 fold change was inactive: -0.075.
For NIPSNAP2 (UniProt O75323), the log2 fold change was inactive: -0.01.
For NEK7 (UniProt Q8TDX7), the log2 fold change was inactive: -0.045.
With NKIRAS2 (UniProt Q9NYR9) the log2 fold change was inactive: -0.068.

Source: the supplement of paper PMC10849652
